Measured values published in publication PMC4039532.
No constants are given. Whether binding was seen depends on the method and setting. Binding seen in cells or lysates may run through a third protein. Some entries that bind do so weakly or less than the wild type.

Protein sequences, listed by entry. Tags and fused reporters are not part of them.
UniProt P31652: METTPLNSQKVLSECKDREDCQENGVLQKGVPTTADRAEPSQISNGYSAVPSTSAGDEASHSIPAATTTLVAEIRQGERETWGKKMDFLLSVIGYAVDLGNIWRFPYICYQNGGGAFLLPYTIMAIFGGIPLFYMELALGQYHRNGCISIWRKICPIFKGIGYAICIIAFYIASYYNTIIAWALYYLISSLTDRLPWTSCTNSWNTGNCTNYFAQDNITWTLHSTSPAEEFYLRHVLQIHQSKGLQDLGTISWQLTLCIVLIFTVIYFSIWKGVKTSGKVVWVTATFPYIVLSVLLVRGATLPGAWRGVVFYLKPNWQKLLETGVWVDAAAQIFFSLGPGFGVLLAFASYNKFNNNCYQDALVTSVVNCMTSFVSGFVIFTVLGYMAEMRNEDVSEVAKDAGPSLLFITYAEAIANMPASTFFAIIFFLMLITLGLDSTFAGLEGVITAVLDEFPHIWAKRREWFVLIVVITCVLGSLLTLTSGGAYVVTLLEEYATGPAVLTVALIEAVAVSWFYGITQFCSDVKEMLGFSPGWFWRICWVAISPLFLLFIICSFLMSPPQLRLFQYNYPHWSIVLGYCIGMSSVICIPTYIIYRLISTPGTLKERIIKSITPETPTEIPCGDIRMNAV
UniProt P60881: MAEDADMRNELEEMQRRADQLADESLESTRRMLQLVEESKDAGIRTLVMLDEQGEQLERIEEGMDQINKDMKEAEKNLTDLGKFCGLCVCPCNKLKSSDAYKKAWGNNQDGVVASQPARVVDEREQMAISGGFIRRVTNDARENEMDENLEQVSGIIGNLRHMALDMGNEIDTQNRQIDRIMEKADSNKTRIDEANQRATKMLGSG
UniProt P63045: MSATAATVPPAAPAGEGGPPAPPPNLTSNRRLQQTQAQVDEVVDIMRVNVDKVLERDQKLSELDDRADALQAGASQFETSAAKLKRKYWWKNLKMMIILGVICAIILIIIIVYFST
UniProt Q63666: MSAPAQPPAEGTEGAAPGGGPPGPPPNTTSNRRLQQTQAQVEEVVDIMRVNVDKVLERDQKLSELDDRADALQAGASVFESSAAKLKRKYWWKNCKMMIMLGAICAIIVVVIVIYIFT
UniProt P63025: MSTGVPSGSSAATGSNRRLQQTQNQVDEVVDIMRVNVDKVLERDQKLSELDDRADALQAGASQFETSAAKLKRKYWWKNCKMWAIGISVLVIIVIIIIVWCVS

Legend:
[1] = molecular target: serotonin transporter (SERT), rat, in pcDNA3 (rat) (UniProt P31652); assay: co-IP; transfected HEK-293 MSR cells lysed in PBS with 0.5% digitonin; precipitated with anti-SERT (C-20 or N_SERT) or control IgG, protein G-agarose; immunoblotting
[2] = molecular target: GST fusion protein of full-length SNAP25 (synaptosome-associated protein of 25 kDa) (rat) (UniProt P60881); assay: pull-down; 20 ug GST or GST fusion protein immobilised on glutathione beads, incubated with 500 ug total protein from SERT-transfected HEK-293 MSR cells in 5 mM CHAPS, 50 mM Tris-HCl pH 7.4, 150 mM NaCl; SERT detected by immunoblotting; only the target purified
[3] = molecular target: GST fusion protein of full-length VAMP2 (vesicle-associated membrane protein 2) (rat) (UniProt P63045); assay: as above
[4] = molecular target: serotonin transporter (SERT), endogenous in rat hippocampal crude synaptosomes (rat (endogenous in hippocampal synaptosomes)) (UniProt P31652); assay: co-IP; rat hippocampal crude synaptosomes in PBS with 0.2% digitonin; precipitated with rabbit anti-N_SERT or control non-immune serum, 2 h at 4 C, protein G-agarose; VAMP2 detected by immunoblotting
[5] = molecular target: serotonin transporter (SERT), rat, in pcDNA3 (rat) (UniProt P31652); assay: co-IP; as a2 but lysis in 5 mM CHAPS; data not shown

With HA-VAMP1 (from UniProt Q63666 1-118) the binding [1] was “binds”.

For “HA-VAMP3 (cellubrevin) (from UniProt P63025 1-103)”, the binding [1] was “binds”.

In the case of “serotonin transporter (SERT), rat, in pcDNA3 (from UniProt P31652 1-630)”, the binding [2] is reported as “no binding” and the binding [3] is reported as “binds”.

“vesicle-associated membrane protein 2 (VAMP2), endogenous in rat hippocampal crude synaptosomes (from UniProt P63045 1-116)” was tested, and the binding [4] was “binds”.

For “vesicle-associated membrane protein 2 (VAMP2), in pcDNA3 (from UniProt P63045 1-116)”, the binding [5] was “binds” and the binding [1] was “binds”.
